{"source": "patent US6265617A", "about": "“Process for the preparation of 3,5,5-trimethylcyclohexa-3-en-1-one (β-isophorone) by isomerization of 3,5,5- trimethylcyclohexa-2-en-1-one (α-isophorone)” (Degussa-Huls Aktiengesellschaft, priority 1998, dated 2001)", "test": "Catalyst activity in liquid-phase isomerization of α-isophorone to β-isophorone", "conditions": "boiling point, normal pressure, 25 vol.% withdrawal", "source_text": "The apparatus for carrying out the isomerization consists of a mushroom-shaped heater, an isomerization flask with attached distillation column, through which a primary mixture composed of α-IP and β-IP is withdrawn, and a pump for recirculating the unreacted α-isophorone left after the purifying distillation of β-IP. […] The suspension is heated to boiling point at normal pressure and the quantity of the α-IP delivered by a Telab pump is coordinated with the quantity of the distillate withdrawn.\nThe primary distillate obtained is conveyed to a distillation column operating at a partial vacuum of 5 mbar to 100 mbar. […] The bottom product consisting of unreacted α-isophorone is returned to the isomerization reactor.\n(§1) Technical sodium hydroxide in various concentrations is stirred into α-IP in the apparatus already described above. With the identical continuous procedure (see Example 1), at the top of the isomerization unit a withdrawal rate of 25 vol.% of a primary distillate is established, based on the quantity of isomerization and the reflux ratio.\nas §1, with “potassium carbonate” for “sodium hydroxide”\nVarious catalysts containing alkali-metal cations are compared with regard to their catalytic activity during the isomerization under conditions corresponding to those in the previous Examples.\nVarious alkali-metal bases and alkaline-earth bases used as catalysts are compared with regard to their catalytic activity during the isomerization under conditions corresponding to those in the previous Examples.\nVarious catalysts containing alkali-metal cations and the elements are compared with regard to their catalytic activity during the isomerization under conditions corresponding to those in the previous Examples.", "key": {"[1]": {"conditions": "2 × 10^-2 mol.% catalyst per mol α-IP"}, "[2]": {"conditions": "2 × 10^-0 mol.% catalyst per mol α-IP"}, "[3]": {"conditions": "2 × 10^-1 mol.% catalyst per mol α-IP"}}}
{"smiles": "[Ca+2].[OH-].[OH-]", "note": "[Ca(OH)2]", "values": [{"measurement": "Rate of formation of HB (high boilers)", "setting": "[1]", "result": 0.4, "unit": "g HB/h/liter α-IP"}]}
{"smiles": "O=C(O)O", "note": "[K2 CO3, potassium carbonate]", "values": [{"measurement": "Rate of formation of HB (high boilers)", "setting": "[2]", "result": 57.2, "unit": "g HB/h/liter α-IP"}, {"measurement": "Rate of formation of HB (high boilers)", "setting": "[3]", "result": 26.3, "unit": "g HB/h/liter α-IP"}, {"measurement": "Rate of formation of HB (high boilers)", "setting": "[1]", "result": 0.9, "unit": "g HB/h/liter α-IP"}]}
{"smiles": "O=C(O)O", "note": "[KHCO3]", "values": [{"measurement": "Rate of formation of HB (high boilers)", "setting": "[1]", "result": 3.0, "unit": "g HB/h/liter α-IP"}]}
{"smiles": "[K+].[OH-]", "note": "[KOH]", "values": [{"measurement": "Rate of formation of HB (high boilers)", "setting": "[1]", "result": 3.9, "unit": "g HB/h/liter α-IP"}]}
{"smiles": "O=C(O)O", "note": "[Li2 CO3]", "values": [{"measurement": "Rate of formation of HB (high boilers)", "setting": "[1]", "result": 0.4, "unit": "g HB/h/liter α-IP"}]}
{"smiles": "[AlH4-].[Li+]", "note": "[LiAIH4]", "values": [{"measurement": "Rate of formation of HB (high boilers)", "setting": "[1]", "result": 0.8, "unit": "g HB/h/liter α-IP"}]}
{"smiles": "[BH4-].[Li+]", "note": "[LiBH4]", "values": [{"measurement": "Rate of formation of HB (high boilers)", "setting": "[1]", "result": 0.8, "unit": "g HB/h/liter α-IP"}]}
{"smiles": "[Li+].[OH-]", "note": "[LiOH]", "values": [{"measurement": "Rate of formation of HB (high boilers)", "setting": "[1]", "result": 3.0, "unit": "g HB/h/liter α-IP"}]}
{"smiles": "[Mg+2].[OH-].[OH-]", "note": "[Mg(OH)2]", "values": [{"measurement": "Rate of formation of HB (high boilers)", "setting": "[3]", "result": 0.7, "unit": "g HB/h/liter α-IP"}, {"measurement": "Rate of formation of HB (high boilers)", "setting": "[1]", "result": 0.8, "unit": "g HB/h/liter α-IP"}]}
{"smiles": "O=C(O)O", "note": "[Na2 CO3, sodium carbonate]", "values": [{"measurement": "Rate of formation of HB (high boilers)", "setting": "[2]", "result": 1.7, "unit": "g HB/h/liter α-IP"}, {"measurement": "Rate of formation of HB (high boilers)", "setting": "[3]", "result": 0.6, "unit": "g HB/h/liter α-IP"}, {"measurement": "Rate of formation of HB (high boilers)", "setting": "[1]", "result": 0.6, "unit": "g HB/h/liter α-IP"}]}
{"smiles": "CO", "note": "[Na(OMe)]", "values": [{"measurement": "Rate of formation of HB (high boilers)", "setting": "[1]", "result": 0.7, "unit": "g HB/h/liter α-IP"}]}
{"smiles": "O=C(O)O", "note": "[NaHCO3]", "values": [{"measurement": "Rate of formation of HB (high boilers)", "setting": "[1]", "result": 0.8, "unit": "g HB/h/liter α-IP"}]}
{"smiles": "[H-].[Na+]", "note": "[NaH]", "values": [{"measurement": "Rate of formation of HB (high boilers)", "setting": "[1]", "result": 0.8, "unit": "g HB/h/liter α-IP"}]}
{"smiles": "[NH2-].[Na+]", "note": "[NaNH2, sodium amide]", "values": [{"measurement": "Rate of formation of HB (high boilers)", "setting": "[1]", "result": 1.0, "unit": "g HB/h/liter α-IP"}]}
{"smiles": "[Na+].[OH-]", "note": "[NaOH, sodium hydroxide]", "values": [{"measurement": "Rate of formation of HB (high boilers)", "setting": "[3]", "result": 35.4, "unit": "g HB/h/liter α-IP"}, {"measurement": "Rate of formation of HB (high boilers)", "setting": "[1]", "result": 0.5, "unit": "g HB/h/liter α-IP"}]}
{"smiles": "[Na]", "note": "[Na]", "values": [{"measurement": "Rate of formation of HB (high boilers)", "setting": "[1]", "result": 0.7, "unit": "g HB/h/liter α-IP"}]}
{"smiles": "O=S(=O)([O-])O.[K+]", "note": "[kHSO4]", "values": [{"measurement": "Rate of formation of HB (high boilers)", "setting": "[1]", "result": 0.7, "unit": "g HB/h/liter α-IP"}]}
